# What was measured:
# cotton pellet granuloma = test: Cotton pellet granuloma test; type: in vivo, SD rats; details: 100 mcg/pellet
# Description: SD rats were used for assessing anti-inflammatory activity of test compound using cotton pellet granuloma method. Sterilized cotton pellets weighing 20 mg were prepared. Test compounds were dissolved in acetone so as to get the required quantity for each cotton pellet in 500 μl. Different pellets were impregnated with 500 μl of acetone to contain required quantity of test compounds and allowed to dry. Vehicle control pellets were impregnated with 500 μl acetone.
# Rats were made into different groups. Two cotton pellets were surgically implanted into the scapular region of each rat. On sixth day of such implantation, pellets along with granuloma were taken out. Thymus gland was also separated from each animal and weighed. The pellets with granuloma were dried for 20 hrs at 60° C. and weighed. Mean weights of dry granuloma and thymus, body weight gain/100 g body weights were calculated.
# [1] = test system: Sephadex-induced lung edema; test: Sephadex-induced lung edema; type: in vivo, SD rats; details: i.t.
# Description: Sephadex® G-200 was prepared in sterile saline (10 mg/ml) and allowed to swell for at least 3 days at room temperature. Test compounds were administered intratracheally at 24 hrs and 2 hrs prior to intratracheal administration of Sephadex® (5 mg/kg) under light ether anesthesia. Vehicle control animals were administered vehicle instead of Sephadex®. At 24 hr after Sephadex® instillation, lung and thymus were excised from individual animals and weighed. Wet weights of lungs and thymus were corrected for 100 g of initial body weight. The percentage increase in lung weight caused by Sephadex® and its inhibitions by the compounds, were calculated. The percentage inhibitions of thymus compared to vehicle control group were also calculated
smiles,measurement,setting,value
CC(C)C(=O)OCC(=O)[C@@]12O[C@H](C3CCCCC3)O[C@@H]1C[C@H]1[C@@H]3CCC4=CC(=O)C=C[C@]4(C)[C@H]3[C@@H](O)C[C@@]12C [Ciclesonide],Ratio A/B (measure of safety index),cotton pellet granuloma,4.18
same,Safety index ED50 Thymus involution/ED50 Lung edema,[1],8.07
CCC(=O)O[C@]1(C(=O)SCF)[C@H](C)C[C@H]2[C@@H]3C[C@H](F)C4=CC(=O)C=C[C@]4(C)[C@@]3(F)[C@@H](O)C[C@@]21C [Fluticasone propionate],Ratio A/B (measure of safety index),cotton pellet granuloma,0.89
same,Safety index ED50 Thymus involution/ED50 Lung edema,[1],4.19
"C[C@@H]1CC2C3C[C@H](F)C4=CC(=O)C=C[C@]4(C)[C@@]3(F)[C@@H](O)C[C@]2(C)[C@@]1(OC(=O)c1ccco1)C(=O)SCC#CCOC(=O)CC(C)(C)F (stereo partly drawn) [Formula I, S-[4-(3-Fluoro-3-methylbutyryloxy)but-2-ynyl]6α,9α-difluoro-17α-(furan-2-yl)carbonyloxy-11β-hydroxy-16α-methyl-3-oxoandrosta-1,4-diene-17β-carbothioate]",Ratio A/B (measure of safety index),cotton pellet granuloma,12.44
same,Safety index ED50 Thymus involution/ED50 Lung edema,[1],92.55
